Experimental data: PubChem BioAssay AID652243 (Drosophila RNAi Screening Center, 2013)

- Test: 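Fly genes required for human androgen receptor driven transcription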 (primary screen)
- System: Drosophila S2R+ cells
- Knock-down reagent: long dsRNA against Drosophila genes
- Timing: 72 h (48 h, then 24 h hormone)
- Conditions: synthetic androgen R1881 at 10 nM for 24 h
- Measurement: 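Firefly light from an androgen-responsive reporter and Renilla control light per well, raw and unnormalised, for each of two replicates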
- Reading the numbers: firefly reporter light: higher = more light from androgen-responsive reporter; Renilla control light: higher = more constitutive control signal (cell number, transfection)
- Rule for the call: 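Hit when the log firefly-to-Renilla ratio dropped or increased by a fixed fold versus the mean of GFP or LacZ controls across duplicate plates; lowering cut given as 1.5 and as 3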
- Calls: active = hit: reporter lowered or raised; inactive = no hit
The screen tested about 24,000 reagents; this is an unselected part of those with a known target gene and a result. Over the whole deposit, 246 (1%) are marked active. 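Plates not normalised; calls are printed but the firefly/Renilla ratio behind them is not deposited; fold cut for lowering reported inconsistently.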 Raw values are not corrected between plates. Not given: the amount of reagent.

For CG6209 [DRSC06968] the deposit lists firefly reporter light, replicate 1 = 61801; firefly reporter light, replicate 2 = 49714; Renilla control light, replicate 1 = 1.58e6; Renilla control light, replicate 2 = 1.58e6; inactive.
For CG6209 [DRSC28800] the deposit lists firefly reporter light, replicate 1 = 4.29e5; firefly reporter light, replicate 2 = 3.37e5; Renilla control light, replicate 1 = 1.28e6; Renilla control light, replicate 2 = 1.18e6; inactive.
For CG13075 [DRSC09958] the deposit lists firefly reporter light, replicate 1 = 2.02e5; firefly reporter light, replicate 2 = 1.69e5; Renilla control light, replicate 1 = 1.85e6; Renilla control light, replicate 2 = 1.93e6; inactive.
Against CG13075 [DRSC28458], the values are firefly reporter light, replicate 1 = 1.57e5; firefly reporter light, replicate 2 = 3.74e5; Renilla control light, replicate 1 = 5.36e5; Renilla control light, replicate 2 = 7.35e5; inactive.
Silencing of CG18810 [DRSC02701] resulted in: firefly reporter light, replicate 1 = 98920; firefly reporter light, replicate 2 = 82438; Renilla control light, replicate 1 = 1.13e6; Renilla control light, replicate 2 = 1.02e6; inactive.
With knock-down of CG11920 [DRSC14439] the results were firefly reporter light, replicate 1 = 92043; firefly reporter light, replicate 2 = 59781; Renilla control light, replicate 1 = 6.89e5; Renilla control light, replicate 2 = 4.87e5; inactive.
Against Rrp6 [DRSC16223] the deposit lists firefly reporter light, replicate 1 = 76004; firefly reporter light, replicate 2 = 76624; Renilla control light, replicate 1 = 6.97e5; Renilla control light, replicate 2 = 4.22e5; inactive.
Knock-down of Vha100-1 [DRSC14148] resulted in: firefly reporter light, replicate 1 = 1.22e5; firefly reporter light, replicate 2 = 83565; Renilla control light, replicate 1 = 6.71e5; Renilla control light, replicate 2 = 4.41e5; inactive.
Depletion of Vha100-1 [DRSC26617] gave: firefly reporter light, replicate 1 = 2.18e5; firefly reporter light, replicate 2 = 2.08e5; Renilla control light, replicate 1 = 9.30e5; Renilla control light, replicate 2 = 7.09e5; inactive.
With knock-down of Vha100-1 [DRSC38989] the results were firefly reporter light, replicate 1 = 5.29e5; firefly reporter light, replicate 2 = 4.91e5; Renilla control light, replicate 1 = 1.79e6; Renilla control light, replicate 2 = 1.72e6; inactive.
For rictor [DRSC20071], the entry reads firefly reporter light, replicate 1 = 1.18e5; firefly reporter light, replicate 2 = 1.08e5; Renilla control light, replicate 1 = 3.99e5; Renilla control light, replicate 2 = 2.96e5; inactive.
Silencing of BomS6 [DRSC21676] came out at: firefly reporter light, replicate 1 = 6.76e5; firefly reporter light, replicate 2 = 6.50e5; Renilla control light, replicate 1 = 2.56e6; Renilla control light, replicate 2 = 1.87e6; inactive.
Knock-down of BomS6 [DRSC26792] gave: firefly reporter light, replicate 1 = 4.70e5; firefly reporter light, replicate 2 = 5.12e5; Renilla control light, replicate 1 = 6.85e5; Renilla control light, replicate 2 = 7.66e5; inactive.
CG3494 [DRSC04375] scored firefly reporter light, replicate 1 = 2.23e5; firefly reporter light, replicate 2 = 1.87e5; Renilla control light, replicate 1 = 1.61e6; Renilla control light, replicate 2 = 1.13e6; inactive.
After knock-down of CG3494 [DRSC36880], the record shows inactive.
For Pgm2a [DRSC07068], the values are firefly reporter light, replicate 1 = 1.04e6; firefly reporter light, replicate 2 = 1.02e6; Renilla control light, replicate 1 = 1.56e6; Renilla control light, replicate 2 = 1.51e6; inactive.
Against upSET [DRSC23289] the deposit lists firefly reporter light, replicate 1 = 7.79e5; firefly reporter light, replicate 2 = 8.15e5; Renilla control light, replicate 1 = 1.20e6; Renilla control light, replicate 2 = 1.73e6; inactive.
adp [DRSC06916] scored firefly reporter light, replicate 1 = 4.40e5; firefly reporter light, replicate 2 = 4.34e5; Renilla control light, replicate 1 = 4.98e5; Renilla control light, replicate 2 = 3.88e5; inactive.
After knock-down of Sgt1 [DRSC16519] the results were firefly reporter light, replicate 1 = 91290; firefly reporter light, replicate 2 = 93117; Renilla control light, replicate 1 = 1.57e6; Renilla control light, replicate 2 = 1.21e6; inactive.
For Sgt1 [DRSC29773], the entry reads firefly reporter light, replicate 1 = 5.64e5; firefly reporter light, replicate 2 = 4.57e5; Renilla control light, replicate 1 = 1.79e6; Renilla control light, replicate 2 = 1.58e6; inactive.
For CR31427 [DRSC22675], the entry reads firefly reporter light, replicate 1 = 7.07e5; firefly reporter light, replicate 2 = 6.10e5; Renilla control light, replicate 1 = 1.41e6; Renilla control light, replicate 2 = 1.09e6; inactive.
With knock-down of CR31427 [DRSC26472] the results were firefly reporter light, replicate 1 = 1.24e5; firefly reporter light, replicate 2 = 1.25e5; Renilla control light, replicate 1 = 1.50e5; Renilla control light, replicate 2 = 1.69e5; inactive.

3 entries already listed, ordered by “Renilla control light, replicate 1”, low to high.
rictor [DRSC20071]: firefly reporter light, replicate 1 = 1.18e5; firefly reporter light, replicate 2 = 1.08e5; Renilla control light, replicate 1 = 3.99e5; Renilla control light, replicate 2 = 2.96e5; Outcome = inactive
Vha100-1 [DRSC38989]: firefly reporter light, replicate 1 = 5.29e5; firefly reporter light, replicate 2 = 4.91e5; Renilla control light, replicate 1 = 1.79e6; Renilla control light, replicate 2 = 1.72e6; Outcome = inactive
BomS6 [DRSC21676]: firefly reporter light, replicate 1 = 6.76e5; firefly reporter light, replicate 2 = 6.50e5; Renilla control light, replicate 1 = 2.56e6; Renilla control light, replicate 2 = 1.87e6; Outcome = inactive
